According to patent US20250144205A1, “COMPOSITIONS AND METHODS FOR TREATING INFECTIOUS DISEASES” (priority 2022, published 2025):
Some results were stated once for a whole list of compounds, not compound by compound.

Tested on: rSARS-CoV-2/mCherry-Nluc
Format: in vivo, K18 hACE2 transgenic mice
Settings: 2.5 mg/kg i.p. once daily, FIG. 10

B1: M9^FL: recombinant full length MEGF9 (multiple EGF-like-domains-9); full-length human MEGF9 is SEQ ID NO: 1 (protein, listed as Homo sapiens)
chain: MNGGAERAMRSLPSLGGLALLCCAAAAAAAAVASAASAGNVTGGGGAAGQVDASPGPGLRGEPSHPFPRATAPTAQAPRTGPPRATVHRPLAATSPAQSPETTPLWATAGPSSTTFQAPLGPSPTTPPAAERTSTTSQAPTRPAPTTLSTTTGPAPTTPVATTVPAPTTPRTPTPDLPSSSNSSVLPTPPATEAPSSPPPEYVCNCSVVGSLNVNRCNQTTGQCECRPGYQGLHCETCKEGFYLNYTSGLCQPCDCSPHGALSIPCNSSGKCQCKVGVIGSICDRCQDGYYGFSKNGCLPCQCNNRSASCDALTGACLNCQENSKGNHCEECKEGFYQSPDATKECLRCPCSAVTSTGSCSIKSSELEPECDQCKDGYIGPNCNKCENGYYNFDSICRKCQCHGHVDPVKTPKICKPESGECINCLHNTTGFWCENCLEGYVHDLEGNCIKKEVILPTPEGSTILVSNASLTTSVPTPVINSTFTPTTLQTIFSVSTSENSTSALADVSWTQFNIIILTVIIIVVVLLMGFVGAVYMYREYQNRKLNAPFWTIELKEDNISFSSYHDSIPNADVSGLLEDDGNEVAPNGQLTLTTPIHNYKA
reduction of mortality: more than 80%

B2: M^9ECD: extracellular domain (ECD) fragment of recombinant M9 (MEGF9); ECD of MEGF9 given as SEQ ID NO: 102 (protein, listed as Homo sapiens)
chain: MGWSCIILFLVATATGVHSAAVASAASAGNVTGGGGAAGQVDASPGPGLRGEPSHPFPRATAPTAQAPRTGPPRATVHRPLAATSPAQSPETTPLWATAGPSSTTFQAPLGPSPTTPPAAERTSTTSQAPTRPAPTTLSTTTGPAPTTPVATTVPAPTTPRTPTPDLPSSSNSSVLPTPPATEAPSSPPPGHQWPVAKMPQKYLGKYACESNLKSKYLPLTQPVMNLRVSEAVKTEYVCNCSVVGSLNVNRCNQTTGQCECRPGYQGLHCETCKEGFYLNYTSGLCQPCDCSPHGALSIPCNSSGKCQCKVGVIGSICDRCQDGYYGFSKNGCLPCQCNNRSASCDALTGACLNCQENSKGNHCEECKEGFYQSPDATKECLRCPCSAVTSTGSCSIKSSELEPECDQCKDGYIGPNCNKCENGYYNFDSICRKCQCHGHVDPVKTPKICKPESGECINCLHNTTGFWCENCLEGYVHDLEGNCIKKEVILPTPEGSTILVSNASLTTSVPTPVINSTFTPTTLQTIFSVSTSENSTSALADVSWTQFN
reduction of mortality: more than 80%
